Results on seven molecules are retold here after patent publication US20250283871A1, “COMPOSITIONS AND METHODS FOR MODULATING THE INTERACTION BETWEEN SS18-SSX FUSION ONCOPROTEIN AND NUCLEOSOMES” (Dana-Farber Cancer Institute, Inc., priority 2020, published 2025).

B1: ERGIC2 (protein, UniProt Q96RQ1 1-377, looked up)
Endoplasmic reticulum-Golgi …: MRRLNRKKTLSLVKELDAFPKVPESYVETSASGGTVSLIAFTTMALLTIMEFSVYQDTWMKYEYEVDKDFSSKLRINIDITVAMKCQYVGADVLDLAETMVASADGLVYEPTVFDLSPQQKEWQRMLQLIQSRLQEEHSLQDVIFKSAFKSTSTALPPREDDSSQSPNACRIHGHLYVNKVAGNFHITVGKAIPHPRGHAHLAALVNHESYNFSHRIDHLSFGELVPAIINPLDGTEKIAIDHNQMFQYFITVVPTKLHTYKISADTHQFSVTERERIINHAAGSHGVSGIFMKYDLSSLMVTVTEEHMPFWQFFVRLCGIVGGIFSTTGMLHGIGKFIVEIICCRFRLGSYKPVNSVPFEDGHTDNHLPLLENNTH
B2: MIGA1 (protein, UniProt Q8NAN2 1-632, looked up)
Mitoguardin 1: MSDCCSAPGISWEAGVGRPAVPGLELQIRRGAMSEETVSESQFSLKTAALRVFDLPLTWYYSLSQIKFSPVAKKLFVVTAVSAISVIFLAHHFKRKRGKKKGKILPWEPEHLILEYTKRAASDKGSSCSSSRQNLTLSLSSTKDKGSQVCNYANGGLFSKYSGSAQSLASVQSVNSCHSCACGNSNSWDKADEDDIKLVNIPVTTPENLYLMGMELFEEALRRWEQALTFRNRQAEDEACGSIKLGAGDAIAEENVDDIISTEFIHKLEALLQRAYRLQEEFEATLGASDPNSLADDIDKDTDITMKGNVEDFGLRDTLSIASTDSFASAAELAEHREVRHTYSLESLCHCPFYEEAMHLVEEGKIYSRVLRTEMLECLGDSDFLAKLHCIRQAFQVILSESANRIFLAESGRKILSALIVKARKNPKKFEDVFDEMIYFLEQTDHWGSTEMELAARGVKNLNFYDVVLDFILMDSFEDLENPPTSIQNVVNNRWLNSSFKETAVASSCWSVLKQKRQQMKIPDGFFAHFYAICEHISPVLAWGFLGPRNSLYDLCCFFKNQVLLFLKDIFDFEKVRYSSTETLAEDLMQLLIRRTELLMAYLEADALRHTSSCLSSHGHVMSTGLLEAKVQ
B3: DNAJC16 (protein, UniProt Q9Y2G8 26-782, looked up)
DnaJ homolog subfamily C …: LDFDPYRVLGVSRTASQADIKKAYKKLAREWHPDKNKDPGAEDKFIQISKAYEILSNEEKRSNYDQYGDAGENQGYQKQQQQREYRFRHFHENFYFDESFFHFPFNSERRDSIDEKYLLHFSHYVNEVVPDSFKKPYLIKITSDWCFSCIHIEPVWKEVIQELEELGVGIGVVHAGYERRLAHHLGAHSTPSILGIINGKISFFHNAVVRENLRQFVESLLPGNLVEKVTNKNYVRFLSGWQQENKPHVLLFDQTPIVPLLYKLTAFAYKDYLSFGYVYVGLRGTEEMTRRYNINIYAPTLLVFKEHINRPADVIQARGMKKQIIDDFITRNKYLLAARLTSQKLFHELCPVKRSHRQRKYCVVLLTAETTKLSKPFEAFLSFALANTQDTVRFVHVYSNRQQEFADTLLPDSEAFQGKSAVSILERRNTAGRVVYKTLEDPWIGSESDKFILLGYLDQLRKDPALLSSEAVLPDLTDELAPVFLLRWFYSASDYISDCWDSIFHNNWREMMPLLSLIFSALFILFGTVIVQAFSDSNDERESSPPEKEEAQEKTGKTEPSFTKENSSKIPKKGFVEVTELTDVTYTSNLVRLRPGHMNVVLILSNSTKTSLLQKFALEVYTFTGSSCLHFSFLSLDKHREWLEYLLEFAQDAAPIPNQYDKHFMERDYTGYVLALNGHKKYFCLFKPQKTVEEEEAIGSCSDVDSSLYLGESRGKPSCGLGSRPIKGKLSKLSLWMERLLEGSLQRFYIPSWPELD
B4: MTPAP (protein, UniProt Q9NVV4 38-582, looked up)
Poly(A) RNA polymerase, …: KDLRRDEQPSGSVETGFEDKIPKRRFSEMQNERREQAQRTVLIHCPEKISENKFLKYLSQFGPINNHFFYESFGLYAVVEFCQKESIGSLQNGTHTPSTAMETAIPFRSRFFNLKLKNQTSERSRVRSSNQLPRSNKQLFELLCYAESIDDQLNTLLKEFQLTEENTKLRYLTCSLIEDMAAAYFPDCIVRPFGSSVNTFGKLGCDLDMFLDLDETRNLSAHKISGNFLMEFQVKNVPSERIATQKILSVLGECLDHFGPGCVGVQKILNARCPLVRFSHQASGFQCDLTTNNRIALTSSELLYIYGALDSRVRALVFSVRCWARAHSLTSSIPGAWITNFSLTMMVIFFLQRRSPPILPTLDSLKTLADAEDKCVIEGNNCTFVRDLSRIKPSQNTETLELLLKEFFEYFGNFAFDKNSINIRQGREQNKPDSSPLYIQNPFETSLNISKNVSQSQLQKFVDLARESAWILQQEDTDRPSISSNRPWGLVSLLLPSAPNRKSFTKKKSNKFAIETVKNLLESLKGNRTENFTKTSGKRTISTQT
B5: GTPBP10 (protein, UniProt A4D1E9 1-387, looked up)
GTP-binding protein 10: MVHCSCVLFRKYGNFIDKLRLFTRGGSGGMGYPRLGGEGGKGGDVWVVAQNRMTLKQLKDRYPRKRFVAGVGANSKISALKGSKGKDCEIPVPVGISVTDENGKIIGELNKENDRILVAQGGLGGKLLTNFLPLKGQKRIIHLDLKLIADVGLVGFPNAGKSSLLSCVSHAKPAIADYAFTTLKPELGKIMYSDFKQISVADLPGLIEGAHMNKGMGHKFLKHIERTRQLLFVVDISGFQLSSHTQYRTAFETIILLTKELELYKEELQTKPALLAVNKMDLPDAQDKFHELMSQLQNPKDFLHLFEKNMIPERTVEFQHIIPISAVTGEGIEELKNCIRKSLDEQANQENDALHKKQLLNLWISDTMSSTEPPSKHAVTTSKMDII
B6: PMPCB (protein, UniProt O75439 44-489, looked up)
Mitochondrial-processing …: STQAATQVVLNVPETRVTCLESGLRVASEDSGLSTCTVGLWIDAGSRYENEKNNGTAHFLEHMAFKGTKKRSQLDLELEIENMGAHLNAYTSREQTVYYAKAFSKDLPRAVEILADIIQNSTLGEAEIERERGVILREMQEVETNLQEVVFDYLHATAYQNTALGRTILGPTENIKSISRKDLVDYITTHYKGPRIVLAAAGGVSHDELLDLAKFHFGDSLCTHKGEIPALPPCKFTGSEIRVRDDKMPLAHLAIAVEAVGWAHPDTICLMVANTLIGNWDRSFGGGMNLSSKLAQLTCHGNLCHSFQSFNTSYTDTGLWGLYMVCESSTVADMLHVVQKEWMRLCTSVTESEVARARNLLKTNMLLQLDGSTPICEDIGRQMLCYNRRIPIPELEARIDAVNAETIREVCTKYIYNRSPAIAAVGPIKQLPDFKQIRSNMCWLRD
B7: GPR89B (protein, UniProt P0CG08 1-455, looked up)
Golgi pH regulator B: MSFLIDSSIMITSQILFFGFGWLFFMRQLFKDYEIRQYVVQVIFSVTFAFSCTMFELIIFEILGVLNSSSRYFHWKMNLCVILLILVFMVPFYIGYFIVSNIRLLHKQRLLFSCLLWLTFMYFFWKLGDPFPILSPKHGILSIEQLISRVGVIGVTLMALLSGFGAVNCPYTYMSYFLRNVTDTDILALERRLLQTMDMIISKKKRMAMARRTMFQKGEVHNKPSGFWGMIKSVTTSASGSENLTLIQQEVDALEELSRQLFLETADLYATKERIEYSKTFKGKYFNFLGYFFSIYCVWKIFMATINIVFDRVGKTDPVTRGIEITVNYLGIQFDVKFWSQHISFILVGIIIVTSIRGLLITLTKFFYAISSSKSSNVIVLLLAQIMGMYFVSSVLLIRMSMPLEYRTIITEVLGELQFNFYHRWFDVIFLVSALSSILFLYLAHKQAPEKQMAP

The series relates to BAF complex subunits and histone proteins. The series can be described thus: Mass spectrometry proteomics of purified HA-SS18 WT and HA-SS18-SSX1 complexes (Tables 5A-5E). More on the design: species or system human. To be noted: HA-SS18WT_NE_peptides: proteins co-purified with HA-SS18 WT from nuclear extract (NE), HEK-293T.
For the molecule B1, the “Total (peptides)” value came to 1 and the “Unique (peptides)” value was found to be 1.

Consider B2, for which the “Total (peptides)” value amounted to 1 and the “Unique (peptides)” value was 1.

In the case of B3, the “Total (peptides)” value was found to be 1 and the “Unique (peptides)” value is on record as 1.

For B4, the “Total (peptides)” value came out at 1 and the “Unique (peptides)” value stood at 1.

For B5, the “Total (peptides)” value was determined as 1 and the “Unique (peptides)” value came to 1.

For the molecule B6, the “Total (peptides)” value is 1 and the “Unique (peptides)” value worked out at 1.

As for B7, the “Total (peptides)” value came to 1 and the “Unique (peptides)” value was 1.
